Here are results for one compound from patent publication US20210023074A1, “TREATMENT OF DEMYELINATING DISEASES” (Victoria Link Ltd., priority 2018, published 2021).

The assay deals with experimental autoimmune encephalomyelitis (EAE) mice. Put plainly: EAE model of MS, disease score, treatment from day of disease onset (score >1). The format is in vivo, C57BL/6 mice. Conditions: for disease score (functional recovery), comparison nalmefene vs clemastine: nalmefene 0.01 mg/kg i.p. daily, clemastine fumerate 10 mg/kg i.p., from disease onset. How it is done:
[…] Shown are the aligned scores from mice (n=15 in Veh, 3 in 0.1, 8 in 0.03, 13 in 0.01, and 4 in 0.003 mg/kg groups) starting from onset/treatment initiation. ****p<0.0001 by two-way ANOVA all doses compared to vehicle.
Experimental detail: EAE was induced in female C57BL/6 mice as described in Example 1. On the day of disease onset (score >1, dotted line), mice were started on daily treatment with vehicle only (Veh) or nalmefene (NaIM) at 0.1, 0.03, 0.01, or 0.003 mg/kg by i.p. injection. The peak disease score during the first EAE episode was recorded and shown are the mean and standard error of individual mice (n=15 in Veh, 3 in 0.1, 8 in 0.03, 13 in 0.01, and 4 in 0.003 mg/kg groups). **p<0.01 compared to vehicle by Kruskal-Wallis with Dunn's multiple comparison test.
[…] Shown are the percentages of mice in each group that recovered (n=15 in Veh, 3 in 0.1, 8 in 0.03, 13 in 0.01, and 4 in 0.003 mg/kg groups). ****p<0.0001, **p<0.01, and *p<0.05 by Fisher's exact test compared to vehicle.
[…] Shown are the number of days mice were in recovery in each group (n=15 in Veh, 3 in 0.1, 8 in 0.03, 13 in 0.01, and 4 in 0.003 mg/kg groups). ****p<0.0001 and *p<0.05 by one-way ANOVA with Holm-Sidak's multiple comparison test.
Experimental detail: EAE was induced in female C57BL/6 mice as described in Example 1. On the day of disease onset (score >1, dotted line), mice were treated with vehicle only (daily), nalmefene (0.01 mg/kg by i.p. injection daily), the KOR antagonist norBNI (10 mg/kg by i.p. injection weekly), both nalmefene and norBNI, or the MOR antagonist BFNA (10 mg/kg by i.p. injection weekly). Shown are the aligned scores from mice (n=7-9/group) starting from onset/treatment initiation. ****p<0.0001 by two-way ANOVA NaIM compared to vehicle or NalM+noBNI, and NalM+norBNI compared to vehicle.
Experimental detail: EAE was induced in female C57BL/6 mice as described in Example 1. […] The peak disease score during the first EAE episode was recorded, and mice were considered recovered if they received a score <0.5 by day 23 post treatment initiation. […]

`CN1CCC[C@@H]1CCO[C@](C)(c1ccccc1)c1ccc(Cl)cc1` [clemastine fumerate]: the “disease score (functional recovery), comparison nalmefene vs clemastine” value is recorded as “reduction (but not ablation) of disease”. For the same compound, under “10 mg/kg i.p. from disease onset”, the “percentage of mice recovered (score <0.5 by day 23 post treatment initiation)” value was “over 50%”. In addition, under “listed as clemastine”, the “disease score (functional recovery), comparison nalmefene vs clemastine” value is “much less effective that nalmefene at enabling full functional recovery”.
